In paper PMC2933246:
No constants are given. Whether binding was seen depends on the method and setting. A result given as binding can be weak or reduced; the word gives no strength.

By UniProt entry, the sequences of proteins in these tests, tags left out. Where a name states a change or a piece, a line headed by the entry shows the natural chain unless it says otherwise.
UniProt P17255: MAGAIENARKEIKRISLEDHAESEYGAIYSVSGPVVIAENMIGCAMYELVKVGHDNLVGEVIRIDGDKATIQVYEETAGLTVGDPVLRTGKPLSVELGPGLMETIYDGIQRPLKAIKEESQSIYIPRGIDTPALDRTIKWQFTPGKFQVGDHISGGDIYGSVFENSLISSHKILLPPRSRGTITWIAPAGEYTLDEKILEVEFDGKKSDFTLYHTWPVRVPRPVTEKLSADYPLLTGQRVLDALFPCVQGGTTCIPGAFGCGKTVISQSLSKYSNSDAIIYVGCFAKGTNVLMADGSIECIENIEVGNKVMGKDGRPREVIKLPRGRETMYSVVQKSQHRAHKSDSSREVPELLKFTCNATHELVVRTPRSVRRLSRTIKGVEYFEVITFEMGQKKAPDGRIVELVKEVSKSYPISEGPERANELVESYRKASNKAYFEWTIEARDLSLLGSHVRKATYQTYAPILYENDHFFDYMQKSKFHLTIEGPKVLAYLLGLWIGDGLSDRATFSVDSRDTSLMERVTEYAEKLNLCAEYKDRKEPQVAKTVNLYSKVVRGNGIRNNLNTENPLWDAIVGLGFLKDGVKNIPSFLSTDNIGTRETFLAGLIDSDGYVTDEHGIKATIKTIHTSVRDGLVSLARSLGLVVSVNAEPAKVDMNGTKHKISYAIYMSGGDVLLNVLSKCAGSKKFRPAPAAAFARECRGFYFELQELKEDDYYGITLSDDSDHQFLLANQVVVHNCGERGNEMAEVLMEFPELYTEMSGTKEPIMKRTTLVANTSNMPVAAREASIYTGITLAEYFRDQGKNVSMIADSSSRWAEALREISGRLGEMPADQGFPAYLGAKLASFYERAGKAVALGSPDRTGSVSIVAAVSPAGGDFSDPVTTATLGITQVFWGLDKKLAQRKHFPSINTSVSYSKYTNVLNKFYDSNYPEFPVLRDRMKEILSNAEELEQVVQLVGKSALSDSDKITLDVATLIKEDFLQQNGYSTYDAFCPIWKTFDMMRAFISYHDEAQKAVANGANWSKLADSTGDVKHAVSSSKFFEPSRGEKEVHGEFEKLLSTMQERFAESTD
UniProt P32610: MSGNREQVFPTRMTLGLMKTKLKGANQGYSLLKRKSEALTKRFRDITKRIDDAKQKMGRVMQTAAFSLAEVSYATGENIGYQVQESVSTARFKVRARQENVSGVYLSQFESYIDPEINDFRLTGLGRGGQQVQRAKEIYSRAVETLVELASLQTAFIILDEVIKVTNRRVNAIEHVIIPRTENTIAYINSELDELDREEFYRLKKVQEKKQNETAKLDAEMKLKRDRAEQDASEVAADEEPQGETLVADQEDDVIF
UniProt P39111: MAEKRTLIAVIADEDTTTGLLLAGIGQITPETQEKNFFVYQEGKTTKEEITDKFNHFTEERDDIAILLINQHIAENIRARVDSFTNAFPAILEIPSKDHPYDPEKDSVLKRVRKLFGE

Biological target: V-ATPase subunit A with carboxy-terminal 3xFLAG (Saccharomyces cerevisiae) (UniProt P17255)
Assay: cryo-EM structure; A3B3DF reconstruction, 14 Å, 21,682 particles, sorted by MU… (EMAN) from the purified V1-ATPase sample; T. thermophilus X-ray coordinates fitted; both purified

binding	Substance
binds	V-ATPase subunit D (from UniProt P32610 1-256)
binds	V-ATPase subunit F (from UniProt P39111 1-118)
